Some of these results come from one statement about several compounds together. For some assays here: At least one read-out could not be matched to a standard name with certainty. Some compounds share one range, which may span the group rather than tell each member.
What was measured:
Assay type in all cases: in vivo
Spodoptera litura = experiment: Test Example 1: Spodoptera litura, artificial diet/filter paper test; settings: 500 ppm test solution, 2 mL; fourth-instar larvae; after 6 days
Adoxophyes orana = experiment: Test Example 2: Adoxophyes orana, artificial diet/filter paper test; settings: 500 ppm test solution, 1 mL; first-instar larvae; after 7 days
Aphis gossypii = experiment: Test Example 3: Aphis gossypii, spray on cucumber leaves; settings: 500 ppm test solution, 20 mL sprayed on cucumber; imagoes and larvae; after 6 days
Nilaparvata lugens = experiment: Test Example 4: Nilaparvata lugens, spray on rice plant; settings: 500 ppm test solution, 20 mL/pot sprayed on rice; first-instar larvae; after 6 days
Musca domestica = experiment: Test Example 5: Musca domestica, filter paper with sucrose bait; settings: 500 ppm test solution, 0.7 ml on filter paper; female imagoes; after 24 hours
Blattalla germanica = experiment: Test Example 6: Blattalla germanica, filter paper with sucrose bait; settings: 500 ppm test solution, 0.7 ml on filter paper; male imagoes; after 6 days
Culex pipiens pallens = experiment: Test Example 7: Culex pipiens pallens larvae in treated water; settings: active ingredient concentration 3.5 ppm in water; last-instar larvae; after 1 day
Tetranychus urticae = experiment: Test Example 8: Tetranychus urticae, spray on bean plant; settings: 500 ppm test solution, 20 mL sprayed on bean plant; after 8 days
Plutella xylostella = experiment: Test Example 9: Plutella xylostella, spray on cabbage; settings: 500 ppm test solution, 20 mL sprayed on cabbage; second-instar larvae; 25° C.; after 5 days

SMILES | index in terms of death rate (Spodoptera litura) | index in terms of death rate (Adoxophyes orana) | index in terms of survival rate (Aphis gossypii) | index in terms of survival rate (Nilaparvata lugens) | index in terms of death rate (Musca domestica) | index in terms of death rate (Blattalla germanica) | index in terms of death rate (Culex pipiens pallens) | index in terms of the surviving number (female imagoes) (Tetranychus urticae) | index in terms of death rate (Plutella xylostella)
COc1ccc(N=C(Oc2cccc(C)c2)/C(C)=C/Oc2ccccc2)cc1 [Compound 171, 3-methylphenyl N-(4-methoxyphenyl)-2-methyl-3-phenoxy-2-propenimidate] | 3 (3: 80 to 99%) | 3 (3: 80 to 99%) | 3 (3: 1 to 10%) | 3 (3: 1 to 10%) | 3 (3: 70 to 99%) | 4 (4: 100%) | 4 (4: 91 to 100%) | 3 (index 3: 4 to 10) | 3 (3: 80 to 99%)
CC(=COc1ccccc1C)C(=Nc1ccccc1)Oc1ccccc1 [Compound 173, phenyl 2-methyl-3-(2-methylphenyloxy)-N-phenyl-2-propenimidate] | 3 (3: 80 to 99%) | 3 (3: 80 to 99%) | 3 (3: 1 to 10%) | 3 (3: 1 to 10%) | 3 (3: 70 to 99%) | 4 (4: 100%) | 4 (4: 91 to 100%) | 3 (index 3: 4 to 10) | 3 (3: 80 to 99%)
CC(=COc1cccc(C)c1)C(=Nc1ccccc1)Oc1ccccc1 [Compound 175, phenyl 2-methyl-3-(3-methylphenyloxy)-N-phenyl-2-propenimidate] | 3 (3: 80 to 99%) | 3 (3: 80 to 99%) | 3 (3: 1 to 10%) | 3 (3: 1 to 10%) | 3 (3: 70 to 99%) | 4 (4: 100%) | 4 (4: 91 to 100%) | 3 (index 3: 4 to 10) | 3 (3: 80 to 99%)
CC(=COc1cccc(C)c1)C(=Nc1ccccc1)Oc1cccc(C)c1 [Compound 176, 3-methylphenyl 2-methyl-3-(3-methylphenyloxy)-N-phenyl-2-propenimidate] | 3 (3: 80 to 99%) | 3 (3: 80 to 99%) | 3 (3: 1 to 10%) | 3 (3: 1 to 10%) | 3 (3: 70 to 99%) | 4 (4: 100%) | 4 (4: 91 to 100%) | 3 (index 3: 4 to 10) | 3 (3: 80 to 99%)
CCc1cccc(OC(=Nc2ccccc2)C(C)=COc2cccc(C)c2)c1 [Compound 177, 3-ethylphenyl 2-methyl-3-(3-methylphenyloxy)-N-phenyl-2-propenimidate] | 3 (3: 80 to 99%) | 3 (3: 80 to 99%) | 3 (3: 1 to 10%) | 3 (3: 1 to 10%) | 3 (3: 70 to 99%) | 4 (4: 100%) | 4 (4: 91 to 100%) | 3 (index 3: 4 to 10) | 3 (3: 80 to 99%)
CC(=COc1cccc(C)c1)C(=Nc1ccccc1)Oc1cccc(C(C)C)c1 [Compound 178, 3-isopropylphenyl 2-methyl-3-(3-methylphenyloxy)-N-phenyl-2-propenimidate] | 3 (3: 80 to 99%) | 3 (3: 80 to 99%) | 3 (3: 1 to 10%) | 3 (3: 1 to 10%) | 3 (3: 70 to 99%) | 4 (4: 100%) | 4 (4: 91 to 100%) | 3 (index 3: 4 to 10) | 3 (3: 80 to 99%)
CC(=COc1cccc(C)c1)C(=Nc1ccccc1)Oc1cc(C)cc(C)c1 [Compound 182, 3,5-dimethylphenyl 2-methyl-3-(3-methylphenyloxy)-N-phenyl-2-propenimidate] | 3 (3: 80 to 99%) | 3 (3: 80 to 99%) | 3 (3: 1 to 10%) | 3 (3: 1 to 10%) | 3 (3: 70 to 99%) | 4 (4: 100%) | 4 (4: 91 to 100%) | 3 (index 3: 4 to 10) | 3 (3: 80 to 99%)
CC(=COc1cccc(C)c1)C(=Nc1ccc(C)cc1)Oc1ccccc1 [Compound 183, phenyl 2-methyl-N-(4-methylphenyl)-3-(3-methylphenyloxy)-2-propenimidate] | 3 (3: 80 to 99%) | 3 (3: 80 to 99%) | 3 (3: 1 to 10%) | 3 (3: 1 to 10%) | 3 (3: 70 to 99%) | 4 (4: 100%) | 4 (4: 91 to 100%) | 3 (index 3: 4 to 10) | 3 (3: 80 to 99%)
CC(=COc1cccc(C)c1)C(=Nc1ccc(C)cc1)Oc1cccc(C)c1 [Compound 184, 3-methylphenyl 2-methyl-N-(4-methylphenyl)-3-(3-methylphenyloxy)-2-propenimidate] | 3 (3: 80 to 99%) | 3 (3: 80 to 99%) | 3 (3: 1 to 10%) | 3 (3: 1 to 10%) | 3 (3: 70 to 99%) | 4 (4: 100%) | 4 (4: 91 to 100%) | 3 (index 3: 4 to 10) | 3 (3: 80 to 99%)
CCc1cccc(OC(=Nc2ccc(C)cc2)C(C)=COc2cccc(C)c2)c1 [Compound 185, 3-ethylphenyl 2-methyl-N-(4-methylphenyl)-3-(3-methylphenyloxy)-2-propenimidate] | 3 (3: 80 to 99%) | 3 (3: 80 to 99%) | 3 (3: 1 to 10%) | 3 (3: 1 to 10%) | 3 (3: 70 to 99%) | 4 (4: 100%) | 4 (4: 91 to 100%) | 3 (index 3: 4 to 10) | 3 (3: 80 to 99%)
COc1ccc(OC(=Nc2ccccc2)C(C)=COc2ccc(C)cc2)cc1 [Compound 205, 4-methoxyphenyl 2-methyl-3-(4-methylphenyloxy)-N-phenyl-2-propenimidate] | 3 (3: 80 to 99%) | 3 (3: 80 to 99%) | 3 (3: 1 to 10%) | 3 (3: 1 to 10%) | 3 (3: 70 to 99%) | – | 4 (4: 91 to 100%) | 3 (index 3: 4 to 10) | 3 (3: 80 to 99%)
CCOc1cccc(OC=C(C)C(=Nc2ccccc2)Oc2ccccc2)c1 [Compound 288, phenyl 3-(3-ethoxyphenyloxy)-2-methyl-N-phenyl-2-propenimidate] | 3 (3: 80 to 99%) | 3 (3: 80 to 99%) | 3 (3: 1 to 10%) | 3 (3: 1 to 10%) | 3 (3: 70 to 99%) | – | 4 (4: 91 to 100%) | 3 (index 3: 4 to 10) | 3 (3: 80 to 99%)
CCC(=COc1ccc(OC)cc1)C(=Nc1ccc(C)cc1)Oc1cccc(C)c1 [Compound 320, 3-methylphenyl 2-ethyl-3-(4-methoxyphenyloxy)-N-(4-methylphenyl)-2-propenimidate] | 3 (3: 80 to 99%) | 3 (3: 80 to 99%) | 3 (3: 1 to 10%) | 3 (3: 1 to 10%) | 3 (3: 70 to 99%) | – | 4 (4: 91 to 100%) | 3 (index 3: 4 to 10) | 3 (3: 80 to 99%)
C(/Oc1ccccc1)=C(\C(=Nc1ccccc1)Oc1ccccc1)C1CC1 [Compound 323, phenyl 2-cyclopropyl-3-phenoxy-N-phenyl-2-propenimidate] | 3 (3: 80 to 99%) | 3 (3: 80 to 99%) | – | 3 (3: 1 to 10%) | 3 (3: 70 to 99%) | 4 (4: 100%) | 4 (4: 91 to 100%) | 3 (index 3: 4 to 10) | 3 (3: 80 to 99%)

Source: patent US8278473B2, “Alpha, beta-unsaturated imidate compound and pesticidal composition containing the same” (Sumitomo Chemical Company, Limited, priority 2007, dated 2012)
